Experimental data published in the supplement of paper PMC12595434, “Development of retinoid nuclear receptor pathway antagonists through targeting aldehyde dehydrogenase 1A3” (iScience, 2025).
Some of the results follow. Single values of this set are uncertain.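 Many melting curves are irregular; where none melted, Tm was taken as 64 °C.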

Chains of the proteins cited; added tags and fusions are not shown. Lines headed by an entry give the natural chain unless they say otherwise; changes in a name come on top.
UniProt Q8N2M8: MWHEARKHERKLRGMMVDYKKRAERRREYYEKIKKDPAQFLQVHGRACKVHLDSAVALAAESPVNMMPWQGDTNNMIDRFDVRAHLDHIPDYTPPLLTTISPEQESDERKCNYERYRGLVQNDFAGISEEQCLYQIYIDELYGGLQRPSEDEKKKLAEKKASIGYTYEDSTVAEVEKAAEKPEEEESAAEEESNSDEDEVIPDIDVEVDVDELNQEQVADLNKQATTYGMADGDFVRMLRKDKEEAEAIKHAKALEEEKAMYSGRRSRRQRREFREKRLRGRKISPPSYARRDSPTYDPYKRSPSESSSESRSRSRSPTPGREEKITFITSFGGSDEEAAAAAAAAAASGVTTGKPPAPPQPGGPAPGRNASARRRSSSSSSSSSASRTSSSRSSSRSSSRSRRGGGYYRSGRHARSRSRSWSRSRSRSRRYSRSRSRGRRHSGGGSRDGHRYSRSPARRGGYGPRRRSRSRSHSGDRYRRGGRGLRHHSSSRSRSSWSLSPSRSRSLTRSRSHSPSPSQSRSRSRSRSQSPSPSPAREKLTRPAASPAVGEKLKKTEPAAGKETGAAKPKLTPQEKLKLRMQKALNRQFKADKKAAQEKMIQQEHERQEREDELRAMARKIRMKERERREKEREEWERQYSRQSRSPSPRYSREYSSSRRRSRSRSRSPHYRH
UniProt Q8N371: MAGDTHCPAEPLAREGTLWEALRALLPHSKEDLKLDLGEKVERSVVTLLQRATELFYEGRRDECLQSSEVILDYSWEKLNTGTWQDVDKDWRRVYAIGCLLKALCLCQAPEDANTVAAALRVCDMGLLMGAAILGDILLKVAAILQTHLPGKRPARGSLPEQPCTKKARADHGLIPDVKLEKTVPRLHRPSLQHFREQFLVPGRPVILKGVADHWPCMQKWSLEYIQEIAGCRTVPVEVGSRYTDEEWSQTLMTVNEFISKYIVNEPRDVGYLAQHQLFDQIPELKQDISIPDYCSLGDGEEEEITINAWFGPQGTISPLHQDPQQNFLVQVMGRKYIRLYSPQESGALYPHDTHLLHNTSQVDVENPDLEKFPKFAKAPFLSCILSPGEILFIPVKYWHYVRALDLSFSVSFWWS
UniProt Q8IZU2: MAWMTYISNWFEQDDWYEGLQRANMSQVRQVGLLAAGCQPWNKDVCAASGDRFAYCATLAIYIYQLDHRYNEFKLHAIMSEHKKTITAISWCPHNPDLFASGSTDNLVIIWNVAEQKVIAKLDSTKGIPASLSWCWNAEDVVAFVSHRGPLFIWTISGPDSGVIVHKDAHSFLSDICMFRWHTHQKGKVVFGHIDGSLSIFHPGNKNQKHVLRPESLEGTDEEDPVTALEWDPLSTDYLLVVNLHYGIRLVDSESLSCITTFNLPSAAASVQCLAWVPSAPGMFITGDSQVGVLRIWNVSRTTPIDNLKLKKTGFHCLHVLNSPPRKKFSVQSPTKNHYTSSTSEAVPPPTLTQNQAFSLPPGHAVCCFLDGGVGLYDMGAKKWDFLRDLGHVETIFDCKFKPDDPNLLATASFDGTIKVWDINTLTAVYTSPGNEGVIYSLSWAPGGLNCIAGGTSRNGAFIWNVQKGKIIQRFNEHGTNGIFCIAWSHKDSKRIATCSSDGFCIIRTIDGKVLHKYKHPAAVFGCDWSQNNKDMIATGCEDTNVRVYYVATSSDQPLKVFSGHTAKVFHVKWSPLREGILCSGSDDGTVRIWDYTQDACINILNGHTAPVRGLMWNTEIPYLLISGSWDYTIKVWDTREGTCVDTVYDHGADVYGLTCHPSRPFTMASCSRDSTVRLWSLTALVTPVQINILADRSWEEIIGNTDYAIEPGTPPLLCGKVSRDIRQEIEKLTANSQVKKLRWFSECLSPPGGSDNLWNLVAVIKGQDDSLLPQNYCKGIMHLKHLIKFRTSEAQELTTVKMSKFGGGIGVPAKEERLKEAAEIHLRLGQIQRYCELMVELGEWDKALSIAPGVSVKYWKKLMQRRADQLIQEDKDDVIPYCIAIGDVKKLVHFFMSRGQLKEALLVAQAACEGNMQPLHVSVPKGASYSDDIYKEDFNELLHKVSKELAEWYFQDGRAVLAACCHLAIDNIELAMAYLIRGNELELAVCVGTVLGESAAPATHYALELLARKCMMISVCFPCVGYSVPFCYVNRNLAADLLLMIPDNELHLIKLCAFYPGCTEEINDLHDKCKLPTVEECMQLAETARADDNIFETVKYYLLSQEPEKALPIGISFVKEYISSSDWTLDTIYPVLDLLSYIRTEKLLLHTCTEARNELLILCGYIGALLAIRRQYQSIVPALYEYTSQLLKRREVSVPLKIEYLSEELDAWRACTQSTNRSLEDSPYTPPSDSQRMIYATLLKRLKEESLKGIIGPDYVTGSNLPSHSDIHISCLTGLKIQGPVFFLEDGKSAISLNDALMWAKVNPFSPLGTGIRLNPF
UniProt Q8N5M1: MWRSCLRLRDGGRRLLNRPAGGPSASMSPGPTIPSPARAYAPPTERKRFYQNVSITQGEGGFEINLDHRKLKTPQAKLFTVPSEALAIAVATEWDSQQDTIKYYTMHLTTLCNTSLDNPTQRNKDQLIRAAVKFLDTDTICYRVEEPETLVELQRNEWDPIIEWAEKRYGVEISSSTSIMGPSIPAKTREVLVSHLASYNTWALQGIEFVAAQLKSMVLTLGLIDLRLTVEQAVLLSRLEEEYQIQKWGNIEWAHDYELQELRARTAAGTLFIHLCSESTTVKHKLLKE
UniProt Q8IWD4: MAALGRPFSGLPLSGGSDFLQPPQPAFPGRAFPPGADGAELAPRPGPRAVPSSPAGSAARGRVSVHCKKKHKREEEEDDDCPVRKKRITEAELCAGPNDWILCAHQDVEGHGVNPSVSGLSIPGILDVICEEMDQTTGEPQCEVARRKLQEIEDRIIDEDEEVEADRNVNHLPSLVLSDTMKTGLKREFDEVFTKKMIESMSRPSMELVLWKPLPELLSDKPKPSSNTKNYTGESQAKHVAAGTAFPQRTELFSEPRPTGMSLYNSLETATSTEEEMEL
UniProt Q8N0Z8: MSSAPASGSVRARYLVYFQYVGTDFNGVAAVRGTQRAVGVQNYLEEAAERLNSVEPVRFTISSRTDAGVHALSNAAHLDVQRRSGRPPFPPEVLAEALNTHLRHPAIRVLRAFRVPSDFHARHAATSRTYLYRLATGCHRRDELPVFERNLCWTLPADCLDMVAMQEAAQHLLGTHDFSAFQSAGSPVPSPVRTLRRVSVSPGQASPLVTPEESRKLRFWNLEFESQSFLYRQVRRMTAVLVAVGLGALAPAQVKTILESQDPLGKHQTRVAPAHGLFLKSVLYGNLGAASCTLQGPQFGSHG
UniProt Q8IZQ5, whole entry: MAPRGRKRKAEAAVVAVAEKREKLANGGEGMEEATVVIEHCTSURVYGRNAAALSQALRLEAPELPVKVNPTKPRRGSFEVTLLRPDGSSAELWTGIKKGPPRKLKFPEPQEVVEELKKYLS
UniProt Q8N680: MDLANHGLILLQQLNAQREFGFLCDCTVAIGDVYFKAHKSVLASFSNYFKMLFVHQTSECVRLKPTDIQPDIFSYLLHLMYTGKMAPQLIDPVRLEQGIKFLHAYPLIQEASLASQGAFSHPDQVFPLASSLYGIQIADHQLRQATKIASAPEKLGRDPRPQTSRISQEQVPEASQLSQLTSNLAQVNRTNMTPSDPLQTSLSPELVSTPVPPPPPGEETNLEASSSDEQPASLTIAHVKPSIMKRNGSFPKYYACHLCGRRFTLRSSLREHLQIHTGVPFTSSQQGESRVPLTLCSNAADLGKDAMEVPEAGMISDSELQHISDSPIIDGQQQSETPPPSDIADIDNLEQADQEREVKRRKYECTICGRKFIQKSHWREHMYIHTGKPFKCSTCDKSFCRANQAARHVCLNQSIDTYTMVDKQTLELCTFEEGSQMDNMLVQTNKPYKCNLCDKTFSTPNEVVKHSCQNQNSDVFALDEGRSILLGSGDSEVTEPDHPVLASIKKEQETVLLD
UniProt Q86VV8: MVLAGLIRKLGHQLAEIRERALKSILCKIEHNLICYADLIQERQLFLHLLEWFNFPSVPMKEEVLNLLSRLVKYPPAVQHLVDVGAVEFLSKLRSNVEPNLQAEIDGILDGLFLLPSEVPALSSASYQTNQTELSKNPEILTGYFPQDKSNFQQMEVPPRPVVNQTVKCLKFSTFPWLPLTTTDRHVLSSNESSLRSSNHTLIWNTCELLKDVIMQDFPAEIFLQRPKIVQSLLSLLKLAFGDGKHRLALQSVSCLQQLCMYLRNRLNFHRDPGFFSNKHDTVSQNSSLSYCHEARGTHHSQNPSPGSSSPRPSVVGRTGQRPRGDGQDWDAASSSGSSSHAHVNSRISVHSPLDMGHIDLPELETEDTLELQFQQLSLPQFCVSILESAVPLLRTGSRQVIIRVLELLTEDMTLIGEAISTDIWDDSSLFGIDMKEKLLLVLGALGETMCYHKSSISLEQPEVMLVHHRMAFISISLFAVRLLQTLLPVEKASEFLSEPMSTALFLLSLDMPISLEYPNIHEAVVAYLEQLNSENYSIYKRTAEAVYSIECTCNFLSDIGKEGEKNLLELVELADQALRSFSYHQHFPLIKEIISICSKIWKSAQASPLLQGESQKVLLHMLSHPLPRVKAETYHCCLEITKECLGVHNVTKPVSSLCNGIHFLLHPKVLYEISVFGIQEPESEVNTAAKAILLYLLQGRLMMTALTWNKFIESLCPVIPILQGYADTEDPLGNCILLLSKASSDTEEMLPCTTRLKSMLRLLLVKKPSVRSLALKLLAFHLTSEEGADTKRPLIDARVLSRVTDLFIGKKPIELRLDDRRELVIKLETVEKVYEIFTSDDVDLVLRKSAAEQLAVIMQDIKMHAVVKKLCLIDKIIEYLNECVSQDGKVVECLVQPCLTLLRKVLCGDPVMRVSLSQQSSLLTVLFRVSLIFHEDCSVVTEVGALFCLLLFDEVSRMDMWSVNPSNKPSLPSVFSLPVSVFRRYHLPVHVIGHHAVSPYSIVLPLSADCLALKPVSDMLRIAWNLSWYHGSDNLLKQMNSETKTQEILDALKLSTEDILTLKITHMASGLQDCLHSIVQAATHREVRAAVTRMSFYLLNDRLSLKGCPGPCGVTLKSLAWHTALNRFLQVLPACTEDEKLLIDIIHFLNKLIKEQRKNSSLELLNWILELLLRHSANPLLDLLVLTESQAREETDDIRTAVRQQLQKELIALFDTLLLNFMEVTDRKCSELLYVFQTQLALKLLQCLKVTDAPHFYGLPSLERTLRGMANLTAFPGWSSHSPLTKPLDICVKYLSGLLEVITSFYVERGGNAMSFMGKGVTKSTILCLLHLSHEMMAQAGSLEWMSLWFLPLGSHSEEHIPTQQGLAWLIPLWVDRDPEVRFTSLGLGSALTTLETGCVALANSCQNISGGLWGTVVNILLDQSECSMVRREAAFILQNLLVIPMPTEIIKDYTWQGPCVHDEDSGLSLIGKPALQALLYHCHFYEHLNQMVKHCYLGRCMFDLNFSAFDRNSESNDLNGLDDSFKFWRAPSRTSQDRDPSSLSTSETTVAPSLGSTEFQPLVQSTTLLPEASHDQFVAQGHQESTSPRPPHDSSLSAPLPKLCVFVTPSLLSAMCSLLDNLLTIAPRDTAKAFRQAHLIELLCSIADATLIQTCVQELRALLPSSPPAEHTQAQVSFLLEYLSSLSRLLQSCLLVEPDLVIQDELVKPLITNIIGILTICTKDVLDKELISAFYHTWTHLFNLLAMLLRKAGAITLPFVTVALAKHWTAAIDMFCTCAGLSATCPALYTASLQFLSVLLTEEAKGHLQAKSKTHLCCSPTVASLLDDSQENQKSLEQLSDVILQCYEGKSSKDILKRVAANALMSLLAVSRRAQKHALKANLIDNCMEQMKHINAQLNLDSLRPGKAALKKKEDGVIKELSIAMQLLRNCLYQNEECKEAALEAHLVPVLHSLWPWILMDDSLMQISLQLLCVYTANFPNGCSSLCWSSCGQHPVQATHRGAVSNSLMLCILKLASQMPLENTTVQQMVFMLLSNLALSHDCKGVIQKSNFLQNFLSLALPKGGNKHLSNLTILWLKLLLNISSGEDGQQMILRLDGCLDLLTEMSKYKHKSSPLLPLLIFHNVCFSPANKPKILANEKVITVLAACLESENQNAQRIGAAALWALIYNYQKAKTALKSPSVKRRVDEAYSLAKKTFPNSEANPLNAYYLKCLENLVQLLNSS
UniProt Q86Y39, whole entry: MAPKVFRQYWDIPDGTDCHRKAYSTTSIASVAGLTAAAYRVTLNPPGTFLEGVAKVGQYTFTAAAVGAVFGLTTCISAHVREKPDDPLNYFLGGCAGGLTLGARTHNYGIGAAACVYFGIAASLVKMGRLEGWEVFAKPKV
UniProt Q8IUW5: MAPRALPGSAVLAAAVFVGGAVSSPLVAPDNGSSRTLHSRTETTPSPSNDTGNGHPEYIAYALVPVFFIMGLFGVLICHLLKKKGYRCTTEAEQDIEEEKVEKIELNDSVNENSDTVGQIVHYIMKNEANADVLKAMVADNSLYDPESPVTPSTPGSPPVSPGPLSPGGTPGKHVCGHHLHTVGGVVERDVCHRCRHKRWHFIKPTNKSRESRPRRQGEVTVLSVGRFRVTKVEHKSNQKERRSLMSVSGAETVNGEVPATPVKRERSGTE

compound: CCc1cnccc1C(=O)Nc1cc2c(cc1F)NC(=O)CC2; assay: melting temperature shift (DMSO Tm minus MBE1-treated Tm) in cellular thermal proteome profiling; higher = less thermal stabilization by MBE1 (negative = stabilized by MBE1); details: A375; MBE1 concentration: 100 nM

Q: With SESTD1 (UniProt Q86VW0) as the target, how does the melting temperature shift read?
A: Its melting temperature shift is -1.63 °C.

Q: DTWD1 (UniProt Q8N5C7) was tested. Which melting temperature shift did it give?
A: Its melting temperature shift is -0.202 °C.

Q: For CLASRP (UniProt Q8N2M8), which melting temperature shift is on record?
A: Its melting temperature shift is -0.739 °C.

Q: UniProt Q8N371 was tested. Which melting temperature shift did it give?
A: Its melting temperature shift is -1.01 °C.

Q: ARFGAP2 (UniProt Q8N6H7) was tested. Which melting temperature shift did it give?
A: The melting temperature shift was -0.159 °C.

Q: UniProt Q8IZU2 was tested. Which melting temperature shift did it give?
A: Its melting temperature shift is 0.0335 °C.

Q: With UniProt Q8N2Q7 as the target, how does the melting temperature shift read?
A: Its melting temperature shift is 2.25 °C.

Q: With UniProt Q86X53 as the target, how does the melting temperature shift read?
A: The melting temperature shift was -1.35 °C.

Q: Which melting temperature shift does the source give for MIER1 (UniProt Q8N108) here?
A: The melting temperature shift was -0.624 °C.

Q: How did the melting temperature shift turn out when UniProt Q8N4B1 was run?
A: Its melting temperature shift is -0.0604 °C.

Q: How did the melting temperature shift turn out when UniProt Q86YA3 was run?
A: Its melting temperature shift is -0.75 °C.

Q: How did the melting temperature shift turn out when ATPAF2 (UniProt Q8N5M1) was run?
A: The melting temperature shift was -0.894 °C.

Q: How did the melting temperature shift turn out when CCDC117 (UniProt Q8IWD4) was run?
A: Its melting temperature shift is -3.74 °C.

Q: How did the melting temperature shift turn out when STK11IP (UniProt Q8N1F8) was run?
A: Its melting temperature shift is 0.208 °C.

Q: ALDH16A1 (UniProt Q8IZ83) was tested. Which melting temperature shift did it give?
A: Its melting temperature shift is -0.49 °C.

Q: C1ORF52 (UniProt Q8N6N3) was tested. Which melting temperature shift did it give?
A: Its melting temperature shift is 0 °C.

Q: UniProt Q8N0Z8 was tested. Which melting temperature shift did it give?
A: Its melting temperature shift is -1.9 °C.

Q: EMC1 (UniProt Q8N766) was tested. Which melting temperature shift did it give?
A: Its melting temperature shift is -0.812 °C.

Q: With UniProt Q8N1I0 as the target, how does the melting temperature shift read?
A: Its melting temperature shift is -0.789 °C.

Q: Which melting temperature shift does the source give for UniProt Q8IZX4 here?
A: Its melting temperature shift is -3.36 °C.

Q: Which melting temperature shift does the source give for UniProt Q8IZQ5 here?
A: Its melting temperature shift is -1.33 °C.

Q: For UniProt Q8N680, which melting temperature shift is on record?
A: The melting temperature shift was 4.51 °C.

Q: How did the melting temperature shift turn out when UniProt Q86YW9 was run?
A: Its melting temperature shift is 1.59 °C.

Q: Which melting temperature shift does the source give for UniProt Q8IXT5 here?
A: The melting temperature shift was 1.04 °C.

same assay, conditions: A375; MBE1 concentration: 1 uM

Q: Which melting temperature shift does the source give for RTTN (UniProt Q86VV8) here?
A: The melting temperature shift was 3.03 °C.

Q: How did the melting temperature shift turn out when GPALPP1 (UniProt Q8IXQ4) was run?
A: The melting temperature shift was -2.82 °C.

Q: UniProt Q8IXJ9 was tested. Which melting temperature shift did it give?
A: The melting temperature shift was 2.23 °C.

Q: How did the melting temperature shift turn out when DTWD1 (UniProt Q8N5C7) was run?
A: The melting temperature shift was -0.946 °C.

Q: How did the melting temperature shift turn out when CLASRP (UniProt Q8N2M8) was run?
A: The melting temperature shift was -0.278 °C.

Q: For WWC1 (UniProt Q8IX03), which melting temperature shift is on record?
A: Its melting temperature shift is -1.53 °C.

Q: How did the melting temperature shift turn out when ARFGAP2 (UniProt Q8N6H7) was run?
A: Its melting temperature shift is -0.723 °C.

Q: UniProt Q8IYU2 was tested. Which melting temperature shift did it give?
A: The melting temperature shift was -1.58 °C.

Q: How did the melting temperature shift turn out when UniProt Q8IZD4 was run?
A: The melting temperature shift was 2.21 °C.

Q: MIER1 (UniProt Q8N108) was tested. Which melting temperature shift did it give?
A: Its melting temperature shift is -0.0183 °C.

Q: How did the melting temperature shift turn out when UniProt Q8N8E3 was run?
A: Its melting temperature shift is -2.66 °C.

Q: With ATPAF2 (UniProt Q8N5M1) as the target, how does the melting temperature shift read?
A: The melting temperature shift was -0.33 °C.

Q: Which melting temperature shift does the source give for CCDC117 (UniProt Q8IWD4) here?
A: Its melting temperature shift is -1.95 °C.

Q: How did the melting temperature shift turn out when STK11IP (UniProt Q8N1F8) was run?
A: The melting temperature shift was -1.25 °C.

Q: With UniProt Q8N2Z9 as the target, how does the melting temperature shift read?
A: Its melting temperature shift is 0.275 °C.

Q: How did the melting temperature shift turn out when ALDH16A1 (UniProt Q8IZ83) was run?
A: The melting temperature shift was -1.67 °C.

Q: Which melting temperature shift does the source give for NDUFA11 (UniProt Q86Y39) here?
A: Its melting temperature shift is 0.862 °C.

Q: Which melting temperature shift does the source give for C1ORF52 (UniProt Q8N6N3) here?
A: The melting temperature shift was -3.1 °C.

Q: Which melting temperature shift does the source give for UniProt Q86Y46 here?
A: The melting temperature shift was -1.85 °C.

Q: How did the melting temperature shift turn out when PHACTR4 (UniProt Q8IZ21) was run?
A: Its melting temperature shift is -2.04 °C.

Q: With EMC1 (UniProt Q8N766) as the target, how does the melting temperature shift read?
A: Its melting temperature shift is 0.248 °C.

Q: How did the melting temperature shift turn out when UniProt Q8N1I0 was run?
A: The melting temperature shift was -0.591 °C.

Q: For UniProt Q8IZX4, which melting temperature shift is on record?
A: The melting temperature shift was -1.18 °C.

Q: UniProt Q8IZQ5 was tested. Which melting temperature shift did it give?
A: The melting temperature shift was -1.18 °C.

Q: RHPN2 (UniProt Q8IUC4) was tested. Which melting temperature shift did it give?
A: Its melting temperature shift is -1.95 °C.

Q: With UniProt Q8N680 as the target, how does the melting temperature shift read?
A: The melting temperature shift was 0.107 °C.

Q: For UniProt Q8IUW5, which melting temperature shift is on record?
A: The melting temperature shift was 1.77 °C.

Q: UniProt Q8IXT5 was tested. Which melting temperature shift did it give?
A: Its melting temperature shift is 2.65 °C.
